# The list does not hold the whole screen: it gathers tests that were run many times, whatever their T/C, doses with no T/C, and many T/C values between a quarter and a half above the control. Other doses and runs of a compound stand elsewhere. T/C gives the treated animals as a percentage of the vehicle group. Some entries give survivors of the animals treated and no T/C: the source holds a T/C of zero for them, seemingly a mark for toxic or unscored doses. Some doses without a T/C left all or most animals alive at the check, yet need not have been tolerated: survival well below the control is almost never listed, so the zero probably covers shortened survival too. Counts of survivors are from the toxicity check (mostly the fifth day) where no day follows; animals may have died later. Schedule codes are those of the source, taken here to give the interval after Q, in days (D) or hours (H), and the number of doses after X. For survival time, this PubChem deposit counts one and a half times the control or more as active, and values a quarter to a half above the control carry no call in these data; other NCI protocols may use other cut-offs. Some entries were tested several times; the results are listed from low to high. Some T/C values are followed by the survivors on the day toxicity was checked, most often the fifth; where none is given, no animal had died by that day.
# Test system: L1210 leukemia ip in BDF1 mice, survival T/C
# Assay: NCI In Vivo Anticancer Drug Screen. Data for tumor model L1210 Leukemia (intraperitoneal) in B6D2F1 (BDF1) mice
# Conditions: T/C endpoint: mean survival time, higher T/C = longer survival
# [1] = dose: 20.0 mg/kg/injection, schedule: Q01DX001 (ip), vehicle: saline
# [2] = dose: 40.0 mg/kg/injection, schedule: Q01DX001 (ip), vehicle: saline
# [3] = dose: 400.0 mg/kg/injection, schedule: Q01DX001 (ip), vehicle: saline
# [4] = dose: 75.0 mg/kg/injection, schedule: Q01DX001 (ip), vehicle: saline
# [5] = dose: 150.0 mg/kg/injection, schedule: Q01DX001 (ip), vehicle: saline
# [6] = dose: 300.0 mg/kg/injection, schedule: Q01DX001 (ip), vehicle: saline
# [7] = dose: 400.0 mg/kg/injection, schedule: Q04DX002 (ip), vehicle: Klucel (hydroxypropylcellulose) (HPC)
# [8] = dose: 100.0 mg/kg/injection, schedule: Q04DX003 (ip), vehicle: Klucel (hydroxypropylcellulose) (HPC)
# [9] = dose: 200.0 mg/kg/injection, schedule: Q04DX003 (ip), vehicle: Klucel (hydroxypropylcellulose) (HPC)
# [10] = dose: 400.0 mg/kg/injection, schedule: Q04DX003 (ip), vehicle: Klucel (hydroxypropylcellulose) (HPC)
# [11] = dose: 400.0 mg/kg/injection, schedule: Q04DX003 (ip), vehicle: saline with Tween-80
# [12] = dose: 50.0 mg/kg/injection, schedule: Q01DX001 (ip), vehicle: carboxymethylcellulose (CMC)
structure (smiles),measurement,setting,value
CNP(Br)(c1ccccc1)(c1ccccc1)c1ccccc1,survivor count,[1],3 of 6
same,survivor count,[2],0 of 6
same,survivor count,"dose: 75.0 mg/kg/injection, schedule: Q01DX001 (ip), vehicle: acetone",0 of 6
same,survivor count,"dose: 150.0 mg/kg/injection, schedule: Q01DX001 (ip), vehicle: acetone",0 of 6
same,survivor count,"dose: 300.0 mg/kg/injection, schedule: Q01DX001 (ip), vehicle: acetone",0 of 6
N=c1ccn(CC(O)COc2ccccc2)cc1 (stereo unspecified),survivor count,"dose: 200.0 mg/kg/injection, schedule: Q01DX001 (ip), vehicle: saline",0 of 4
same,survivor count,[3],0 of 4
CC#CC#CC(=O)c1ccccc1,survivor count,[4],0 of 6
same,survivor count,[5],0 of 6
same,survivor count,[6],0 of 6
O=S(=O)(O)SCCCNCCCNCCCSS(=O)(=O)O,survivor count,"dose: 150.0 mg/kg/injection, schedule: Q04DX003 (ip), vehicle: saline",4 of 6
same,survivor count,[6],0 of 6
Cc1cccc(NC(=O)c2c(Cl)c(Cl)c(Cl)c(Cl)c2C(=O)O)c1C,survivor count,[7],3 of 3
CNC(=O)NC1CCCCC1,survivor count,"dose: 400.0 mg/kg/injection, schedule: Q01DX009 (ip), vehicle: carboxymethylcellulose (CMC)",3 of 3
CCCCCCN1C(C)C1C(C)C (stereo unspecified),survivor count,[8],3 of 6
same,survivor count,[9],0 of 6
same,survivor count,[10],1 of 6
c1ccc(-c2nn(-c3ccccc3)[n+](-c3cccc4ccccc34)n2)cc1,survivor count,"dose: 8.0 mg/kg/injection, schedule: Q01DX015 (ip), vehicle: carboxymethylcellulose (CMC)",3 of 6
same,survivor count,"dose: 16.0 mg/kg/injection, schedule: Q01DX015 (ip), vehicle: carboxymethylcellulose (CMC)",0 of 6
same,survivor count,"dose: 32.0 mg/kg/injection, schedule: Q01DX015 (ip), vehicle: carboxymethylcellulose (CMC)",0 of 6
ClC1(Cl)C2C=CC=CCC21 (stereo unspecified),survivor count,"dose: 400.0 mg/kg/injection, schedule: Q04DX003 (ip), vehicle: other",6 of 6
CN1C(=O)C(Br)=C(Br)C1=O,survivor count,[1],1 of 6
same,survivor count,[2],0 of 6
same,survivor count,[4],1 of 6
same,survivor count,"dose: 80.0 mg/kg/injection, schedule: Q01DX001 (ip), vehicle: saline",0 of 6
same,survivor count,[5],0 of 6
same,survivor count,[6],0 of 6
CC(=O)c1cc(C)[nH]c1C,survivor count,"dose: 200.0 mg/kg/injection, schedule: Q01DX009 (ip), vehicle: saline sonified",6 of 6
same,survivor count,[10],0 of 6
N#C/C(=C\C1CCC(OCC2CCCCC2)CC1)C1CCC([N+](=O)[O-])CC1 (stereo unspecified),survivor count,"dose: 200.0 mg/kg/injection, schedule: Q04DX002 (ip), vehicle: saline with Tween-80",1 of 3
same,survivor count,"dose: 400.0 mg/kg/injection, schedule: Q04DX002 (ip), vehicle: saline with Tween-80",0 of 3
c1ccc(NC(Nc2ccccn2)c2ccncc2)nc1,T/C,[11],125 % of control
NC(=S)NCC12CC3CC(CC(C3)C1)C2,T/C,"dose: 12.0 mg/kg/injection, schedule: Q04DX002 (ip), vehicle: Klucel (hydroxypropylcellulose) (HPC)",141 % of control [2 of 3 alive]
same,survivor count,"dose: 25.0 mg/kg/injection, schedule: Q04DX002 (ip), vehicle: Klucel (hydroxypropylcellulose) (HPC)",3 of 3
same,survivor count,"dose: 50.0 mg/kg/injection, schedule: Q04DX002 (ip), vehicle: Klucel (hydroxypropylcellulose) (HPC)",3 of 3
same,survivor count,"dose: 100.0 mg/kg/injection, schedule: Q04DX002 (ip), vehicle: Klucel (hydroxypropylcellulose) (HPC)",0 of 3
same,survivor count,"dose: 200.0 mg/kg/injection, schedule: Q04DX002 (ip), vehicle: Klucel (hydroxypropylcellulose) (HPC)",0 of 3
same,survivor count,[7],0 of 3
O=C(CC(O)(C(F)(F)F)C(F)(F)F)C(Cl)C(O)(C(F)(F)F)C(F)(F)F (stereo unspecified),survivor count,"dose: 100.0 mg/kg/injection, schedule: Q01DX001 (ip), vehicle: other",3 of 6
CS(=O)(=O)OCCN(CCOS(C)(=O)=O)c1ccc(C(=O)O)cc1,T/C,"dose: 200.0 mg/kg/injection, schedule: Q01DX001 (ip), vehicle: other",126 % of control
same,survivor count,"dose: 200.0 mg/kg/injection, schedule: Q01DX015 (ip), vehicle: other",5 of 6
same,survivor count,"dose: 267.0 mg/kg/injection, schedule: Q01DX015 (ip), vehicle: other",5 of 6
same,survivor count,"dose: 330.0 mg/kg/injection, schedule: Q01DX015 (ip), vehicle: saline",5 of 6
same,T/C,"dose: 400.0 mg/kg/injection, schedule: Q01DX001 (ip), vehicle: other",142 and 146 % of control
same,survivor count,[3],2 of 4
same,survivor count,"dose: 400.0 mg/kg/injection, schedule: Q01DX015 (ip), vehicle: other",0 of 6
same,survivor count,"dose: 600.0 mg/kg/injection, schedule: Q01DX001 (ip), vehicle: other",2 of 6
same,survivor count,"dose: 600.0 mg/kg/injection, schedule: Q01DX001 (ip), vehicle: saline",1 of 4
same,survivor count,"dose: 600.0 mg/kg/injection, schedule: Q01DX015 (ip), vehicle: other",0 of 6
O=NN(CCCl)C(=O)Nc1ccc(-c2ccc(NC(=O)N(CCCl)N=O)cc2)cc1,T/C,"dose: 31.0 mg/kg/injection, schedule: Q01DX001 (ip), vehicle: carboxymethylcellulose (CMC)",125 % of control
same,T/C,"dose: 62.0 mg/kg/injection, schedule: Q01DX001 (ip), vehicle: carboxymethylcellulose (CMC)",132 % of control
same,T/C,"dose: 125.0 mg/kg/injection, schedule: Q01DX001 (ip), vehicle: carboxymethylcellulose (CMC)",134 % of control
COc1cccc(C2NC(=O)N3C(c4cccc(OC)c4)NC(=O)N23)c1 (stereo unspecified),survivor count,"dose: 400.0 mg/kg/injection, schedule: Q04DX003 (ip), vehicle: gum acacia",6 of 6
c1ccc(-c2c[nH]c(-c3ccccc3)c2)cc1,survivor count,"dose: 100.0 mg/kg/injection, schedule: Q01DX001 (ip), vehicle: steroid suspending solution",6 of 6
[Cl][Ni].[NH-]C(Cc1ccccc1)C(=O)O (stereo unspecified),survivor count,"dose: 100.0 mg/kg/injection, schedule: Q04DX003 (ip), vehicle: saline with Tween-80",0 of 3
same,survivor count,"dose: 200.0 mg/kg/injection, schedule: Q04DX003 (ip), vehicle: saline with Tween-80",0 of 3
same,survivor count,[11],0 of 3
COc1cc(C=Nc2ccc(C(=O)O)cc2)ccc1N(CCCl)CCCl,T/C,"dose: 6.0 mg/kg/injection, schedule: Q01DX015 (ip), vehicle: carboxymethylcellulose (CMC)",125 % of control
same,survivor count,"dose: 24.0 mg/kg/injection, schedule: Q01DX015 (ip), vehicle: carboxymethylcellulose (CMC)",5 of 6
same,T/C,"dose: 25.0 mg/kg/injection, schedule: Q01DX001 (ip), vehicle: carboxymethylcellulose (CMC)",128 % of control
same,survivor count,"dose: 48.0 mg/kg/injection, schedule: Q01DX015 (ip), vehicle: carboxymethylcellulose (CMC)",2 of 6
same,T/C,[12],137 % of control [5 of 6 alive]
same,survivor count,[12],3 of 6
same,survivor count,"dose: 100.0 mg/kg/injection, schedule: Q01DX001 (ip), vehicle: carboxymethylcellulose (CMC)",2 of 6
same,survivor count,"dose: 200.0 mg/kg/injection, schedule: Q01DX001 (ip), vehicle: carboxymethylcellulose (CMC)",0 of 6
CC1(C)N=C(N)N=C(N)N1c1cc(Cl)c(Cl)cc1Cl,survivor count,"dose: 25.0 mg/kg/injection, schedule: Q01DX009 (ip), vehicle: Klucel (hydroxypropylcellulose) (HPC)",6 of 6
same,survivor count,"dose: 50.0 mg/kg/injection, schedule: Q01DX009 (ip), vehicle: Klucel (hydroxypropylcellulose) (HPC)",1 of 6
same,survivor count,"dose: 100.0 mg/kg/injection, schedule: Q01DX009 (ip), vehicle: Klucel (hydroxypropylcellulose) (HPC)",0 of 6
same,survivor count,[8],4 of 6
same,survivor count,[9],1 of 6
same,survivor count,[10],0 of 6
